Reference: publication PMC7615741
No constants are given. Whether binding was seen depends on the method and setting. For some of these results: A result given as binding can be weak or reduced; the word gives no strength. For some of these results: Sequences can lack the tags named with a protein.

Experiments:
[1] = molecular target: T1, AtEH1FL-GFP (A. thaliana) (UniProt Q9LM78); experiment: partitioning assay (confocal microscopy of condensates in cells); scaffold AtEH1-GFP (FL or ΔIDR3) co-expressed with client-mScarlet in N. benthamiana epidermal cells; partitioning coefficient at AtEH1 positive foci (MitoTally script)
T1 sequence: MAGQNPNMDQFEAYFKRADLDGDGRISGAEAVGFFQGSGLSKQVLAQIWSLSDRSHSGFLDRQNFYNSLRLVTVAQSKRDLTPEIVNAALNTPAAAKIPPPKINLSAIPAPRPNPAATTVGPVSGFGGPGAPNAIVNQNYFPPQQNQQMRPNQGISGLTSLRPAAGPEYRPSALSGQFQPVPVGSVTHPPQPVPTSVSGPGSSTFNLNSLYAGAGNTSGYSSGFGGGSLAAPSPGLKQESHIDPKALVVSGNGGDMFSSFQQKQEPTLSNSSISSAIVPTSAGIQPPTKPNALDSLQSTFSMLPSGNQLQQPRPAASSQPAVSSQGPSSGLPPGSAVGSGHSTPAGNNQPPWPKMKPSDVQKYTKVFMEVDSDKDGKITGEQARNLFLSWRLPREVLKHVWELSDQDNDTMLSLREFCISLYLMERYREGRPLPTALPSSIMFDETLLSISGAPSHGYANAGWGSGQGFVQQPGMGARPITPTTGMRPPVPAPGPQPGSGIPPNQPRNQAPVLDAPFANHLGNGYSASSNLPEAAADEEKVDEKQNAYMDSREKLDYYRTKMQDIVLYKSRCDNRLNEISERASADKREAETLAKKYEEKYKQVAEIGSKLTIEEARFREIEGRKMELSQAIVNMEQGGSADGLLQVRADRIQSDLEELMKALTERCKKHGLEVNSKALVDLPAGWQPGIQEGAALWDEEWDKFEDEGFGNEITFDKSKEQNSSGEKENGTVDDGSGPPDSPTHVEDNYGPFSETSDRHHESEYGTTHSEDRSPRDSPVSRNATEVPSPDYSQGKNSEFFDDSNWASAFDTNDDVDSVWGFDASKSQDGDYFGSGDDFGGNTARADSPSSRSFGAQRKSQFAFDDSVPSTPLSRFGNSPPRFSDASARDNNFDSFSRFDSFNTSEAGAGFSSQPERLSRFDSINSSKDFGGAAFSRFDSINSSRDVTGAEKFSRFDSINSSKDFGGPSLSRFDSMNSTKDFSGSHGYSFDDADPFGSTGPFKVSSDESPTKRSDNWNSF

[2] = molecular target: AtEH1_(ΔIDR3)-GFP (A. thaliana); experiment: as above

| Molecule | binding [1] | binding [2] |
| --- | --- | --- |
| PICALM3-mScarlet (A. thaliana) | no binding | – |
| TOL6-mScarlet (protein, UniProt O80910 1-671) MASSSASATVAVDKATSDLLLGPDWTTNMEICDSVNSLHWQAKDVVKAVKKRLQHKSSRVQLLALTLLETLVKNCGDYLHHQVAEKNILGEMVKIVKKKADMQVRDKILVMVDSWQQAFGGPEGKYPQYYWAYDELRRSGVEFPRRSPDASPIITPPVSHPPLRQPQGGYGVPPAGYGVHQAGYGVPQAGYGIPQAGYGVPQAGYGIPQVGYGMPSGSSRRLDEAMATEVEGLSLSSIESMRDVMDLLGDMLQAVDPSDREAVKDEVIVDLVERCRSNQKKLMQMLTSTGDDELLGRGLDLNDSLQILLAKHDAIASGSPLPVQASGSPLSVQASKPADSSPKSSEAKDSSSIAGSSSPIPATVSTGKSPIDEEYEEEEDEFAQLARRHSKPPASVTTDPTSLESHNAASNALALALPDPPPPVNTTKEQDMIDLLSITLCTPSTPPAPSSQPSPPPPAGSDQNTHIYPQPQPRFDSYVAPWAQQQQPQQPQAQQGYSQHQQHQQQQGYSQPQHSQQQQGYSQLQQPQPQQGYSQSQPQAQVQMQPSTRPQNPYEYPPPPWASTSANAYYTPRANASASYTDTSALAGRSLQQSNSFPTRAGDPQATSTASNSGVSVGQKPFVPSYRLFEDLDVFGSADGKHNKPANSSNGSQNLSGSQTQQSMIGGRKMI | – | binds |
| TOL9-mScarlet (protein, UniProt Q8L860 1-675) MVNAMVERATSEMLIGPDWAMNLEICDMLNSDPAQAKDVVKGIKKRIGSRNPKAQLLALTLLETIVKNCGDMVHMHVAEKGVIHEMVRIVKKKPDFHVKEKILVLIDTWQEAFGGPRARYPQYYAGYQELLRAGAVFPQRSERSAPVFTPPQTQPLTSYPPNLRNAGPGNDVPEPSAEPEFPTLSLSEIQNAKGIMDVLAEMLSALEPGNKEDLKQEVMVDLVEQCRTYKQRVVHLVNSTSDESLLCQGLALNDDLQRVLTNYEAIASGLPGTSSQIEKPKSETGKSLVDVDGPLIDTGDSSNQANGATSSSGNGVLNQLALPAPPVTNGSANSKIDLLSGDDLALVPVGPPQPASPVASDQNALALIDMFSDNTNNPSPATAPSGNPAQNIPLNPQGHQQPNSQAGEAGLQQSNGFAPQVGYSQFEQPSYGQGVSSPWSSQPAQQPVQPSYGAQDSTAFPPPPWEAQLQDYSPSAESGSPFSPGMHPTQTAFTHAQPVNNNNPYPQIPQTGPPVNNNSPYAQMPQTGQAVANISPYPQIPQNGVYMPNQPNQALGSGYQPQQQQQQQMMMAQYYAQQQQLQQQQQQQAYGNQMGGYGYGYNQQQQGSSPYLDQQMYGLSMRDQTSHQVASSSSTTSYLPPMKPKNKPEDKLFGDLVDISKFKPTKPTSGRAGTM | – | binds |
| AUXL1-mScarlet (protein, UniProt Q9SU08 1-904) MDDFTGLLARDFGLKPQGKSAPMASQSNSSAADFNTFASSYSFATAAGKKSDSLPVFDDPGRDGDDLLFKDVFSGPPPPKYGSSSGDSRSPSAPAFDYDAMFKEPKSKSASSMPVYDKPVYDDEDVFESIPELKIPSTSSQSARFENVFSSISSSPTKHRKQNSSPFDDLMGNNLGKKGADSDREEKGSSIFDDLIPGFGRTSSPPSKRTTSETTNQSEKAPYRTAETSSNVEEDPFVVLEESESTPREPSRTDPLDDIGKFNSRKTDHSSVHGGVFVDIDPLDNLGKPGPDMNSKGKSHLRPPGNISGSQSPPVESPGSYHSKKVSFEDFLEPHNMSTPPPTNSNGSFESSDDVWLTVSEIPLFTQPTSAPPPTRPPPPRPTRPIKKKVNEPSIPTSAYHSHVPSSGRASVNSPTASQMDELDDFSIGRNQTAANGYPDPSSGEDSDVFSTAAASAAAMKDAMDKAEAKFRHAKERREKENLKASRSREGDHTENYDSRERELREKQVRLDRERAEREAEMEKAQEREKEEREREQKRIERERERLVARQAVERATREARERAATEAHAKVQRAAVGKATDARERAERAAVQRAHAEARERAAAGARDKAAKAAAEAREKAEKAAAEAKERANAEAREKETRVRAERAAVERAAAEARGRAAAQAKAKQQQENTNDLDSFFSSISRPNSAPRQRTNPLDPFQDSWNKGGSFESSRESLRVPPGQPENLRKTSSVTNIVDDLSSIFGASASQSGGFQDVDGETEERRRARLERHQRTQERAAKALAEKNERDLQVQREQVEKDRIGVTLDVEIKRWGAGKEGNLRALLSTLQYVLWPECGWQPVSLTDLITAASVKKVYRKATLCIHPDKVQQKGANLQQKYIAEKVFDMLKEAWNKFNSEELF | – | binds |
